Data as given in PubChem BioAssay AID1159584 (Peter MacCallum Cancer Centre, 2016).

- Purpose: 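Knock-downs that harm CDH1-null cells more than parental MCF10A cells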 (primary screen)
- Cell system: human MCF10A breast epithelial cells, parental and CDH1-null
- Knock-down reagent: siRNA against human genes
- Read-out: 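ATP luminescence (CellTiter-Glo) viability per line relative to mean mock wells over all plates, and the ratio of CDH1-null to parental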
- Reading the numbers: CDH1-null / parental viability ratio: higher = CDH1-null cells survive relatively better than parental
This is an unselected part of about 18,000 reagents. Not all columns of the deposit are shown. Not stated in the record: the amount of reagent, the time to read-out.

Against CHCHD4, the values are CDH1-null / parental viability ratio 1.12. Against PAX6, the entry reads CDH1-null / parental viability ratio 1.07. Against MXRA7 the deposit lists CDH1-null / parental viability ratio 1.08. HEMK1 scored CDH1-null / parental viability ratio 0.96. Silencing of HID1 came out at: CDH1-null / parental viability ratio 1.1. With knock-down of DNAJC11 the results were CDH1-null / parental viability ratio 0.66.

For RPH3AL, the entry reads CDH1-null / parental viability ratio 1.24. Silencing of KRT76 gave: CDH1-null / parental viability ratio 0.95. Silencing of IL36A resulted in: CDH1-null / parental viability ratio 0.87. OLIG1 gave CDH1-null / parental viability ratio 1.59. Depletion of NAGS gave: CDH1-null / parental viability ratio 1.26. With knock-down of CNNM2, the record shows CDH1-null / parental viability ratio 1.15.

Depletion of TRAT1 resulted in: CDH1-null / parental viability ratio 1.85. Depletion of D2HGDH came out at: CDH1-null / parental viability ratio 1.41. After knock-down of DDX17, the screen gave CDH1-null / parental viability ratio 0.85. With knock-down of ZNF275, the screen gave CDH1-null / parental viability ratio 0.81. PKD1L1-AS1 showed CDH1-null / parental viability ratio 3.06. Silencing of HOMER2 resulted in: CDH1-null / parental viability ratio 0.95.

With knock-down of SPINDOC the results were CDH1-null / parental viability ratio 0.93. For ASNS, the values are CDH1-null / parental viability ratio 0.98. Depletion of NSA2 gave: CDH1-null / parental viability ratio 1.21. FAM131A gave CDH1-null / parental viability ratio 1.17. For MSL2, the values are CDH1-null / parental viability ratio 0.83. Depletion of TUT4 gave: CDH1-null / parental viability ratio 0.75.
